This is an account of results in publication PMC5996148.

Test systems include GSTM3 (human); GSTP1 (human); GTF2E1 (human); GTF2H5 (human); GTF2I (human); GTPBP8 (human); GUCA1A (human).
Holding throughout (experiment): protein microarray (ProtoArray v5.0), streptavidin-Alexa Fluor 647
Common to all, as to conditions: 3'-biotin; 20 mM Tris (pH 7.5), 5 mM MgCl2, 100 mM KCl, 0.1% Tween-20, A/T-rich and random oligonucleotide blockers; temperature not stated; high values mean tight binding

Experiment [1] relates to GTP-binding nuclear protein Ran (human).
The target in a further experiment is T1, GYG2 (UniProt O15488).
T1 sequence: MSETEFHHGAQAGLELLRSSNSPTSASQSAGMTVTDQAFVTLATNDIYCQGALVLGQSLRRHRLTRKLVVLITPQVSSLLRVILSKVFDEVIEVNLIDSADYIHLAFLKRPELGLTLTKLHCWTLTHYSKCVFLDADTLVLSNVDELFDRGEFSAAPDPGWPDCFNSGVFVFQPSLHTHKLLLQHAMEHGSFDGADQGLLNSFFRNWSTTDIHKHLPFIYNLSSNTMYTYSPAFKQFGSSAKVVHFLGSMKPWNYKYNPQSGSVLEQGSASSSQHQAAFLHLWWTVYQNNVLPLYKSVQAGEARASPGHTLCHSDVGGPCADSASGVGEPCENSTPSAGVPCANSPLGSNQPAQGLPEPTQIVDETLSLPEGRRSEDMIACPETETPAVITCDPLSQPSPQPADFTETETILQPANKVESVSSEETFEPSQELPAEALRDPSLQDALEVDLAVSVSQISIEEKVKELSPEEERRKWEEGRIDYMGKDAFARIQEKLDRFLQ

The next experiment concerns the target T2, GYPC (UniProt P04921).
T2 sequence: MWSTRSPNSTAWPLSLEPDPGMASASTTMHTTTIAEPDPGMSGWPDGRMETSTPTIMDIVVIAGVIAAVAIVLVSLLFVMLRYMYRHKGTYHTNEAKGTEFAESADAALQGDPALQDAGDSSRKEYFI

Some of the results follow. For some of these results: The exact form of the protein is not confirmed.

As for “GGTGACAGGGGTATGGGGAGGGG [G4-2 biotinylated (Ct1)]”, the binding signal in the experiment on GSTM3 (human) is -0.399 z-score; with GSTP1 (human), -0.381 z-score; in the experiment on GTF2E1 (human) it was -0.381 z-score; in the experiment on GTF2H5 (human), -0.393 z-score; with GTF2I (human) it was -0.396 z-score; in experiment [1], -0.392 z-score. Also, the binding signal in the experiment on GTPBP8 (human) was -0.372 z-score; with GUCA1A (human) it was -0.399 z-score; with GYG2 it was -0.398 z-score; with GYPC, -0.394 z-score.
